Test results as given in PubChem BioAssay AID1671190 (National Center for Advancing Translational Sciences (NCATS), 2021).
The whole screen tested about 580,000 compounds, of which about 6,100 (1.1%) were called active. The inconclusive results got no clear call from the source; some entries with a clear call stand among them for comparison. Calls follow the shape of the dose curve; as a rule, active = well fitted inhibition curve with a large enough effect; inconclusive = small, poorly fitted or top-dose-only effect, or another doubt; inactive = no such curve, though single readings can be large or run the other way. Potencies beside an inconclusive call are fits to weak or partial responses and may not hold up.

Chains of the proteins cited; added tags and fusions are not shown. Lines headed by an entry give the natural chain unless they say otherwise; changes in a name come on top.
UniProt P18054: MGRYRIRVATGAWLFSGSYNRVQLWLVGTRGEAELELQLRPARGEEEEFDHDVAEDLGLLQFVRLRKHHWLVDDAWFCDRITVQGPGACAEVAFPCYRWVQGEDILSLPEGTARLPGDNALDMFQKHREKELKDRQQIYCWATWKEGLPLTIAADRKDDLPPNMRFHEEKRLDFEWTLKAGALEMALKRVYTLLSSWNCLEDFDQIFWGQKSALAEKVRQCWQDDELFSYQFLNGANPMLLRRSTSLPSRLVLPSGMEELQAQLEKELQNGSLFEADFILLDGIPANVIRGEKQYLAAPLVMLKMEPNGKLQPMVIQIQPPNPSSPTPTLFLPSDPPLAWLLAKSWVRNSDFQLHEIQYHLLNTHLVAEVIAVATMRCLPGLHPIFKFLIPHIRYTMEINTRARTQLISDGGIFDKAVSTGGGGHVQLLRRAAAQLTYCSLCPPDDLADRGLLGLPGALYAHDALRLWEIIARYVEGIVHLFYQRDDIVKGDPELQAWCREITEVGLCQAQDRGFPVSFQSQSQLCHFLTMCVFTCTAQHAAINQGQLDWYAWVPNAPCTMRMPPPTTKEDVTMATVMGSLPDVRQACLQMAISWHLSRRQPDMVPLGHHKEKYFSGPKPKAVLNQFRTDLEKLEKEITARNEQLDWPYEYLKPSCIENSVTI

Each compound was assayed against Polyunsaturated fatty acid lipoxygenase ALOX12 (Homo sapiens) (UniProt P18054) (assay: Primary qHTS assay for inhibitors of human arachidonate 12S-lipoxygenase (ALOX12): Round 2). Conditions: purified 12hLO, xylenol orange hydroperoxide absorbance; series mostly up to 108 µM.
Method in brief: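 Purified human 12hLO at 150 nM in 25 mM Hepes, 0.01% Triton X-100, pH 7.0, preincubated 15 min at room temperature with compound. Reaction started with 40 uM arachidonic acid, 30 min at room temperature. Hydroperoxide measured by Fe-xylenol orange, 573/405 nm absorbance ratio.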
Potency is read from the fitted curve at half-maximal effect.

Structure (SMILES)	Potency
Cc1ccc(S(=O)(=O)CCC(=O)N2CCN(c3nc4c(C)c(Cl)ccc4s3)CC2)cc1	inconclusive: 100 µM [inhibitor, partial curve, poor fit]
O=C(O)C1CCCCC1C(=O)NCCCn1ccnc1 (configuration not stated)	inconclusive: 28.2 µM [inhibitor, partial curve, poor fit]
COCCn1c(N2CCN(Cc3c(F)cccc3Cl)CC2)nc2c1c(=O)[nH]c(=O)n2C	inactive
CN1CCN(CCOc2ccc(-c3ccccc3)cc2)CC1	inconclusive: 17.8 µM [inhibitor, single point]
COc1ccccc1-n1cnnc1SCC(=O)Nc1cc(C)on1	inactive
CS(=O)(=O)N1CC(c2nc(Cc3ccccc3)no2)C1	inactive
CCOc1ccc(C(C)=O)cc1COc1ccc2c(C)cc(=O)oc2c1	inconclusive: 100 µM [inhibitor, single point]
COc1ccc(S(=O)(=O)NC(=O)C2(C)CCN2C(=O)COc2ccc(Cl)cc2)cc1OC (configuration not stated)	inconclusive: 44.7 µM [inhibitor, partial curve, poor fit]
COc1ccc(OC)c(NC(=O)COc2coc(CN3CCc4ccccc43)cc2=O)c1	inconclusive: 126 µM [inhibitor, partial curve, poor fit]
O=C(/N=C1\NC(=O)C(F)(C(F)(F)F)S1)NC1CCCCC1 (configuration not stated)	active: 10 µM
COc1ccc2sc(-c3ccc(S(C)(=O)=O)cc3)c(C#CCO)c2c1	inconclusive: 50.1 µM [inhibitor, partial curve, poor fit]
COC(=O)c1c(NC(=O)CSc2n[nH]c(N)n2)sc(C)c1C	inconclusive: 79.4 µM [inhibitor, partial curve, poor fit]
CC1=C(C(=O)N2CCOCC2)CC(CC(=O)NCCN2CCOCC2)C(=O)N1Cc1ccccc1 (configuration not stated)	inconclusive: 100 µM [inhibitor, single point]
Cc1ccc(S(=O)(=O)NCCCN2CCCC2)cc1	inactive
COc1ccc(CCC(C)NCc2ccc(F)cc2)cc1 (configuration not stated)	inactive
O=C(CC1N=C2c3ccccc3N=C(SCc3ccccc3Cl)N2C1=O)NCc1ccco1 (configuration not stated)	inconclusive: 25.1 µM [inhibitor, partial curve, poor fit]
CCCCn1c(NCc2c[nH]c3ccccc23)nc2ccccc21	inconclusive: 79.4 µM [inhibitor, single point]
COC(=O)C1=C(C)N(Cc2cccc(C(F)(F)F)c2)C(=NCC2CC2)NC1c1cccc(F)c1 (configuration not stated)	inconclusive: 79.4 µM [inhibitor, partial curve, poor fit]
CN(C(=O)COC(=O)C1COc2ccccc2O1)C1(C#N)CCCCC1 (configuration not stated)	inconclusive: 112 µM [inhibitor, partial curve, poor fit]
O=C(O)COc1cccc(NC(=O)C2CCCO2)c1 (configuration not stated)	inactive
Cc1c(C(=O)NC2CCS(=O)(=O)C2)oc2ccccc12 (configuration not stated)	inactive

Structure (SMILES)	Potency
O=C(Nc1ccc(F)c(Cl)c1)C1=NO[C@@H]2CN(CCc3ccccc3)C[C@H]12	inconclusive: 39.8 µM [inhibitor, full curve]
CCOc1c2ccc(C(=O)NCc3ccc(C(F)(F)F)cc3C(F)(F)F)cc2nn1C	inactive
Cn1nc(C(=O)Nc2ccccc2C(=O)N2CCCC2)c2ccccc2c1=O	inconclusive: 100 µM [inhibitor, single point]
COC(=O)c1ccc(Nc2ncnc3c2nc2n3CCCC2)cc1	inconclusive: 22.4 µM [inhibitor, full curve, poor fit]
CCOc1ccc(C2Nc3ccccc3C(CC)(CC)O2)cc1 (configuration not stated)	inconclusive: 126 µM [inhibitor, single point]
Cn1c(=O)c2c(nc(SCCN3CCCCC3)n2Cc2ccc(Cl)cc2)n(C)c1=O	inconclusive: 39.8 µM [inhibitor, partial curve, poor fit]
CC1CCC/C(=N/NC(=O)C2CC2)C1 (configuration not stated)	inconclusive: 35.5 µM [inhibitor, single point]
O=C(CN(Cc1ccccc1)C(=O)CNS(=O)(=O)c1ccccc1)NCC1CCCO1 (configuration not stated)	inconclusive: 56.2 µM [inhibitor, partial curve, poor fit]
Cc1cc(=O)[nH]c(SCc2cn3ccccc3n2)n1	inconclusive: 126 µM [inhibitor, single point]
O=C(O)C(c1c[nH]c2ccccc12)N1CCN(Cc2cccs2)CC1 (configuration not stated)	inactive
CCOc1ccc(C(=O)NCCn2cc(SCC(=O)NCCc3ccc(OC)c(OC)c3)c3ccccc32)cc1	inconclusive: 63.1 µM [inhibitor, partial curve, poor fit]
O=C(Nc1ccccc1)Nc1ccc([C@H]2OCC(=O)N(Cc3ccccc3)[C@@H]2CO)cc1	inconclusive: 112 µM [inhibitor, partial curve, poor fit]
O=C1N[C@@H](Cc2ccccc2)C(=O)N2[C@@H]1C[C@]1(Br)c3ccccc3N(S(=O)(=O)c3ccccc3)[C@H]21	inconclusive: 0.631 µM [inhibitor, full curve, poor fit]
Nc1nnc2cc(F)ccc2n1	inactive
Cc1ccc(-c2csc(N(Cc3ccco3)C(=O)c3cccs3)n2)cc1	inactive
CCn1c2nc(SCCN3CCOCC3)nnc2c2cc(C)cc(C)c21	inconclusive: 56.2 µM [inhibitor, single point]
COc1ccc(Cl)cc1NC(=O)Cn1ccn(Cc2ccc(C)cc2)c(=O)c1=O	inconclusive: 141 µM [inhibitor, single point]
CC(=O)Nc1ccc(C)c(NC(=S)Nc2ccc(F)cc2)c1	inconclusive: 50.1 µM [inhibitor, partial curve, poor fit]
NC1=NC[C@H](Cc2ccc(O)cc2)N1CCCCC1CCCCC1	inconclusive: 50.1 µM [inhibitor, partial curve, poor fit]
CN(CC(=O)Nc1ccccc1Br)C(=O)c1cc([N+](=O)[O-])ccc1N1CCOCC1	inconclusive: 89.1 µM [inhibitor, partial curve, poor fit]
N#Cc1ccc(CN2CCCC3(CCN(C(=O)c4ccncc4)CC3)C2)cc1	inactive

Shown comma-delimited: two of the compounds above.
Structure (SMILES),Potency
CCOc1ccc(C2Nc3ccccc3C(CC)(CC)O2)cc1 (configuration not stated),"inconclusive: 126 µM [inhibitor, single point]"
Cn1c(=O)c2c(nc(SCCN3CCCCC3)n2Cc2ccc(Cl)cc2)n(C)c1=O,"inconclusive: 39.8 µM [inhibitor, partial curve, poor fit]"
